Nine substances from patent US10064926B2, “Peptides and combination of peptides for use in immunotherapy against hepatocellular carcinoma (HCC) and other cancers” (Immatics biotechnologies GmbH, priority 2014, dated 2018) can be followed below.

For data set [1], the system named is primary HCC tissue samples. Nature of the data set: Identification and label-free LC-MS relative quantitation of HLA-presented peptides (presentation profiles/scores), HCC versus normal tissues. Details: species or system human; key to PeptidePresentation (presentation score): very highly over-presented on tumors compared to a panel of normal tissues (+++); highly over-presented on tumors compared to a panel of normal tissues (++); over-presented on tumors compared to a panel of normal tissues (+). As to conditions: HCC tumors compared to a panel of normal tissues.

Data set [2] concerns tumor samples of other tumor types. Nature of the data set: Over-presentation of peptides on additional tumor types versus normal tissues (LC-MS). Further details: species or system human. Particulars: over-presentation on more than 5% of the measured tumor samples, or presentation on more than 5% with ratio of geometric means tumor vs normal tissues larger than 3.
Data set [3] relates to source genes of the peptides in HCC and normal tissues. Nature of the data set: mRNA expression profiling of source genes by Affymetrix microarray (expression scores). As to conditions: source gene mRNA in tumors compared to a panel of normal tissues. Further details: species or system human; key: very highly overexpressed in tumors compared to a panel of normal tissues (+++); highly overexpressed in tumors compared to a panel of normal tissues (++); overexpressed in tumors compared to a panel of normal tissues (+).

For some of these results: Expression grades refer to the transcript from which the peptide derives; gene names, where given, were looked up from the sequence.

Regarding “62: peptide found in GLUL (gene looked up) (KIAGTNAEV; listed as Homo sapiens) [compound 62]”, the “PeptidePresentation (presentation score)” value in data set [1] is given as “++”. In data set [2], the “Additional Entities (additional tumor types on which the peptide was found over-presented)” value was “BRCA”. Also, in data set [3], the “Gene Expression (expression score)” value is “+”.

As to “103: peptide found in GLUL (gene looked up) (SMGDHLWVA; listed as Homo sapiens) [compound 103]”, the “PeptidePresentation (presentation score)” value in data set [1] is given as “+++”. In addition, the “Additional Entities (additional tumor types on which the peptide was found over-presented)” value in data set [2] is reported as “BRCA, Urinary bladder cancer, NHL”. In addition, the “Gene Expression (expression score)” value in data set [3] is “+”.

“1: peptide found in APOB (gene looked up) (VMAPFTMTI; listed as Homo sapiens) [compound 1]”: the “PeptidePresentation (presentation score)” value in data set [1] was “+++”. For the same substance, in data set [2], the “Additional Entities (additional tumor types on which the peptide was found over-presented)” value is “SCLC, Melanoma, NHL” and the “Other relevant organs/diseases (additional tumor types on which the peptide was found over-presented)” value was “Pancreas”. In addition, in data set [3], the “Gene Expression (expression score)” value is on record as “+++”.

As to “273: peptide found in RRBP1 (gene looked up) (AILETAPKEV; listed as Homo sapiens) [compound 273]”, the “PeptidePresentation (presentation score)” value in data set [1] is recorded as “++”. The “Additional Entities (additional tumor types on which the peptide was found over-presented)” value in data set [2] is “Esophageal Cancer”. Also, the “Gene Expression (expression score)” value in data set [3] was “+”.

As for “298: peptide found in CRYZ (gene looked up) (TMAKESSIIGV; listed as Homo sapiens) [compound 298]”, the “PeptidePresentation (presentation score)” value in data set [1] is on record as “++”. Further, the “Additional Entities (additional tumor types on which the peptide was found over-presented)” value in data set [2] is on record as “SCLC, Gallbladder Cancer, Bile Duct Cancer”. Further, in data set [3], the “Gene Expression (expression score)” value is on record as “+”.

As for “39: peptide found in TNK2 (gene looked up) (ALDPKANFST; listed as Homo sapiens) [compound 39]”, in data set [1], the “PeptidePresentation (presentation score)” value is recorded as “+++”. The “Other relevant organs/diseases (additional tumor types on which the peptide was found over-presented)” value in data set [2] is recorded as “Kidney, Brain”. In addition, the “Gene Expression (expression score)” value in data set [3] is reported as “+”.

Turning to “263: peptide found in PEX19 (gene looked up) (VLYPSLKEI; listed as Homo sapiens) [compound 263]”, in data set [1], the “PeptidePresentation (presentation score)” value is on record as “+”. In addition, the “Additional Entities (additional tumor types on which the peptide was found over-presented)” value in data set [2] is “RCC, BRCA, Uterine Cancer”. In data set [3], the “Gene Expression (expression score)” value was “+”.

For the substance “228: peptide found in ACSL4 (gene looked up) (YLITSVELL; listed as Homo sapiens) [compound 228]”, in data set [1], the “PeptidePresentation (presentation score)” value is on record as “++”. Also, in data set [2], the “Additional Entities (additional tumor types on which the peptide was found over-presented)” value is “OC, NHL”. Further, in data set [3], the “Gene Expression (expression score)” value is “+”.

Take “114: peptide found in APOB (gene looked up) (VLSQVYSKV; listed as Homo sapiens) [compound 114]”: in data set [1], the “PeptidePresentation (presentation score)” value is reported as “+++”. Moreover, the “Additional Entities (additional tumor types on which the peptide was found over-presented)” value in data set [2] is recorded as “SCLC”. For the same substance, the “Gene Expression (expression score)” value in data set [3] is given as “+++”.
